Results taken from PMC1890283.
These are yes or no findings as the source states them, for the method shown. In cells and extracts the contact can be indirect. Some binding calls cover weakened binding; strength is not graded here.

Protein sequences, listed by entry. Tags and fused reporters are not part of them. Lines headed by an entry give the natural chain unless they say otherwise; changes in a name come on top.
UniProt Q07817: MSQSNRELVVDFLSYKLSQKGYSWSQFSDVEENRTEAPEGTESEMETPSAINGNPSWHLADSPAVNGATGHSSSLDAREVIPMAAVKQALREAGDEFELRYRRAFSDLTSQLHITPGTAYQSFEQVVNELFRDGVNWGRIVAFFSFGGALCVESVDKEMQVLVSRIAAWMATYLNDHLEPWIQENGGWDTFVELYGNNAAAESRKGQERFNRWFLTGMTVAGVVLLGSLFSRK
UniProt Q07813: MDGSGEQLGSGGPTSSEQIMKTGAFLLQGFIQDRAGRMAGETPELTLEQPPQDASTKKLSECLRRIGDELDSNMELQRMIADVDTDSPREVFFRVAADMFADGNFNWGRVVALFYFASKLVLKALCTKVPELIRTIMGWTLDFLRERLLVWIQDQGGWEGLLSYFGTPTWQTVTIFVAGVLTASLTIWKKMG

Target: Bcl-xL (human) (UniProt Q07817)
Test: co-IP; HEK cells co-transfected with a GFP-tagged Bax construct and Bcl-xL, harvested after 15 hours; lysed in 1% CHAPS, 50 mM Tris-Cl, 150 mM NaCl, 1 mM EDTA, pH 7.4; Bcl-xL immunoprecipitated with 10 μg antibody to Bcl-xL and Protein-G agarose at 4°C; immunoprecipitates blotted with an antibody to GFP and for actin

| binding | Substance |
| --- | --- |
| binds | Bax 30–105-GFP (from UniProt Q07813 30-105) (domain or fragment) |
| binds | Bax 1–146-GFP (from UniProt Q07813 1-146) (domain or fragment) |

| Substance | binding |
| --- | --- |
| Bax 30–146-GFP (from UniProt Q07813 30-146) (domain or fragment) | binds |
